Assay results reported in US20120171240A1 (UNIVERSITY OF LOUISVILLE RESEARCH FOUNDATION, published 2012).
Results are given in words; binding and its absence hold for the method and conditions named. Some results given as binding are weak or reduced against the parent protein; the word gives no strength.

Protein sequences, listed by entry. Tags and fused reporters are not part of them. Lines headed by an entry give the natural chain unless they say otherwise; changes in a name come on top. Residues count along the entry.
UniProt P27512, residues 20-289: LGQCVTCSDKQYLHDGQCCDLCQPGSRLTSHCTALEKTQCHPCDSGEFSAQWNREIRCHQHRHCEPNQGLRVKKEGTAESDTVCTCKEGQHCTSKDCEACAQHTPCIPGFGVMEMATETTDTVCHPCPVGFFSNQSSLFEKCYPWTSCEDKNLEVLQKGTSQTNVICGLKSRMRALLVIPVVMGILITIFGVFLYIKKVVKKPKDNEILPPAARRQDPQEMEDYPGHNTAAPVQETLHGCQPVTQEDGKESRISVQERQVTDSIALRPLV
UniProt P25942, residues 21-277: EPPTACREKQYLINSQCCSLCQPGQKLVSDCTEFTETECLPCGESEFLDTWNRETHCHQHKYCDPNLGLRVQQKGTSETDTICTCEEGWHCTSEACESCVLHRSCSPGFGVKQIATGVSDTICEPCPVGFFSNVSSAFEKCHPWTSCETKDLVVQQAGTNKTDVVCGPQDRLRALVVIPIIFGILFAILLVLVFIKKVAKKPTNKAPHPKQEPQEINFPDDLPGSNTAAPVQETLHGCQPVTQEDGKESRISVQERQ
UniProt P22629: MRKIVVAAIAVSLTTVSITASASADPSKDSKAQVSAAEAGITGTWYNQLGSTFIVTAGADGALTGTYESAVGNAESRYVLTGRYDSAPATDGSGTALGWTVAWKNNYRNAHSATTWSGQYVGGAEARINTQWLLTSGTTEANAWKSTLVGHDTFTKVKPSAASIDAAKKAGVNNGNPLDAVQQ

Columns and labels:
[1] = molecular target: murine CD40 receptor (mouse) (UniProt P27512); assay: flow cytometry on mouse A20 cells, FITC anti-streptavidin detection
human CD40 receptor [2] = molecular target: T1, human CD40 receptor (human, UniProt P25942 21-277); assay: flow cytometry on human THP-1 cells, FITC anti-streptavidin detection
[3] = molecular target: murine CD40 receptor (mouse) (UniProt P27512); assay: flow cytometry on mouse A20 cells, 200 ng/ml, FITC anti-streptavidin detection
human CD40 receptor [4] = molecular target: T1, human CD40 receptor; assay: flow cytometry on human THP-1 cells, 200 ng/ml, FITC anti-streptavidin detection

Measured: binding

CSA-mCD40L (fusion of core streptavidin and murine CD40L) (from UniProt P22629 37-163; P27548 47-260) (ligand)
binds: all assays above
